{
  "source": "patent US20020009713A1",
  "about": "“Methods for identifying modulators of neuronal growth” (priority 2000, published 2002)",
  "test_system": "rat sympathetic neurons",
  "test": "MTT survival assay of cultured sympathetic neurons",
  "format": "cell-based",
  "details": "cultured in NGF or NGF+KCl",
  "experimental": "Neurons were plated at low density (approximately one ganglion/well) in Nunclon™ 4-well culture dishes (Gibco BRL, Burlington, Ontario, Canada), coated with either rat tail collagen or poly-D-lysine and laminin (both from Collaborative Biomedical Products, Bedford, Mass.). Culture medium was UltraCulture (BioWhittaker, Walkersville, Md.), supplemented with 3% rat serum (Harlan Bioproducts, Madison, Wis.), 2 mM glutamine, 100 U/ml penicillin, 100 μg/ml streptomycin (all from BioWhittaker), and for the first two days, 7 μM cytosine arabinoside (Sigma-Aldrich Canada Ltd., Oakville, Ontario, Canada).\nNGF-dependent neurons were selected by culturing sympathetic neurons for five days in the presence of 50 ng/ml NGF. Neurons were washed three times for one hour each in neurotrophin-free media, and were then fed with media containing 10 ng/ml NGF alone, or various concentrations of NGF plus either 100 ng/ml BDNF, 10 μg/ml αBDNF, or a 1:100 dilution of antiserum containing the p75^NTR antibody, REX (Weskamp and Reichardt, Neuron 6: 649-663, 1991). […] After aspiration of the MTT containing media, 100 μl of a 0.065N HCl/isopropanol mixture was added to each well to lyse the cells, and colorimetric analysis was performed using an ELISA reader. […]",
  "note": "At least one structure is not confirmed: it was looked up by name or label, or the drawing left a doubt.",
  "data": [
    {"smiles": "C=C[C@@]1(C)CC(=O)[C@]2(O)[C@@]3(C)[C@@H](O)CCC(C)(C)[C@@H]3[C@H](O)[C@H](OC(C)=O)[C@@]2(C)O1", "note": "[forskolin]", "values": [
      {"measurement": "survival of sympathetic neurons (MTT)", "value": "None of these compounds perturbs"}
    ]}
  ]
}
